Laboratory results taken from the supplement of paper PMC8728848.
The list shows a part of the results.

Tests used:
Test in all cases: glycan array binding signal (z-score within array); higher = stronger binding
Conditions in all cases: glycan notation: IUPAC condensed, linker removed
[1] = target: Neu5Ac(a2-3)Gal(b1-4)GlcNAc(b1-3)[Neu5Ac(a2-3)Gal(b1-4)GlcNAc(b1-6)]GalNAc
How it was run: (§1)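 Glycan array binding is given as a within-array Z-score, which can be read as non-binding when negative. The arrays, 3228 of them, came from the Consortium for Functional Glycomics database and were retained only where the protein sequence was available. Z-scores were averaged across arrays of the same protein sequence at different concentrations or buffers and across linkers.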

[2] = target: Neu5Ac(a2-3)Gal(b1-4)GlcNAc(b1-6)GalNAc
How it was run: as §1

[3] = target: Neu5Ac(a2-3)Gal(b1-4)GlcNAc(b1-6)[Gal(b1-3)]GalNAc
How it was run: as §1

[4] = target: Neu5Ac(a2-3)Gal(b1-4)GlcNAc(b1-6)[Neu5Ac(a2-3)Gal(b1-3)]GalNAc
How it was run: as §1

[5] = target: Neu5Ac(a2-3)Gal(b1-4)GlcNAc6S
How it was run: as §1

[6] = target: Neu5Ac(a2-3)Gal(b1-4)[Fuc(a1-3)]GlcNAc
How it was run: as §1

[7] = target: Neu5Ac(a2-3)Gal(b1-4)[Fuc(a1-3)]GlcNAc(b1-2)Man
How it was run: as §1

[8] = target: Neu5Ac(a2-3)Gal(b1-4)[Fuc(a1-3)]GlcNAc(b1-3)Gal
How it was run: as §1

[9] = target: Neu5Ac(a2-3)Gal(b1-4)[Fuc(a1-3)]GlcNAc(b1-3)Gal(b1-4)GlcNAc
How it was run: as §1

[10] = target: Neu5Ac(a2-3)Gal(b1-4)[Fuc(a1-3)]GlcNAc(b1-3)Gal(b1-4)[Fuc(a1-3)]GlcNAc(b1-3)Gal(b1-4)[Fuc(a1-3)]GlcNAc
How it was run: as §1

[11] = target: Neu5Ac(a2-3)Gal(b1-4)[Fuc(a1-3)]GlcNAc(b1-3)GalNAc
How it was run: as §1

[12] = target: Neu5Ac(a2-3)Gal(b1-4)[Fuc(a1-3)]GlcNAc(b1-6)[Gal(b1-3)]GalNAc
How it was run: as §1

[13] = target: Neu5Ac(a2-3)Gal(b1-4)[Fuc(a1-3)]GlcNAc(b1-6)[Neu5Ac(a2-3)Gal(b1-3)]GalNAc
How it was run: as §1

[14] = target: Neu5Ac(a2-3)Gal(b1-4)[Fuc(a1-3)]GlcNAc6S
How it was run: as §1

[15] = target: Neu5Ac(a2-3)Gal6S(b1-4)GlcNAc
How it was run: as §1

[16] = target: Neu5Ac(a2-3)Gal6S(b1-4)[Fuc(a1-3)]GlcNAc
How it was run: as §1

[17] = target: Neu5Ac(a2-3)GalNAc
How it was run: as §1

[18] = target: Neu5Ac(a2-3)GalNAc(b1-4)GlcNAc
How it was run: as §1

[19] = target: Neu5Ac(a2-3)[GalNAc(b1-4)]Gal(b1-4)Glc
How it was run: as §1

[20] = target: Neu5Ac(a2-3)[GalNAc(b1-4)]Gal(b1-4)GlcNAc
How it was run: as §1

[21] = target: Neu5Ac(a2-3)[GalNAc(b1-4)]Gal(b1-4)GlcNAc(b1-3)GalNAc
How it was run: as §1

[22] = target: Neu5Ac(a2-3)[Neu5Ac(a2-6)]GalNAc
How it was run: as §1

[23] = target: Neu5Ac(a2-6)Gal
How it was run: as §1

[24] = target: Neu5Ac(a2-6)Gal(b1-3)GlcNAc(b1-3)[Gal(b1-4)GlcNAc(b1-6)]Gal(b1-4)Glc
How it was run: as §1

[25] = target: Neu5Ac(a2-6)Gal(b1-4)Glc
How it was run: as §1

[26] = target: Neu5Ac(a2-6)Gal(b1-4)GlcNAc
How it was run: as §1

[27] = target: Neu5Ac(a2-6)Gal(b1-4)GlcNAc(b1-2)Man
How it was run: as §1

[28] = target: Neu5Ac(a2-6)Gal(b1-4)GlcNAc(b1-2)Man(a1-3)Man(b1-4)GlcNAc(b1-4)GlcNAc
How it was run: as §1

[29] = target: Neu5Ac(a2-6)Gal(b1-4)GlcNAc(b1-2)Man(a1-3)[Gal(b1-4)GlcNAc(b1-2)Man(a1-6)]Man(b1-4)GlcNAc(b1-4)GlcNAc
How it was run: as §1

[30] = target: Neu5Ac(a2-6)Gal(b1-4)GlcNAc(b1-2)Man(a1-3)[GlcNAc(b1-2)Man(a1-6)]Man(b1-4)GlcNAc(b1-4)GlcNAc
How it was run: as §1

[31] = target: Neu5Ac(a2-6)Gal(b1-4)GlcNAc(b1-2)Man(a1-3)[GlcNAc(b1-4)][Neu5Ac(a2-6)Gal(b1-4)GlcNAc(b1-2)Man(a1-6)]Man(b1-4)GlcNAc(b1-4)GlcNAc
How it was run: as §1

[32] = target: Neu5Ac(a2-6)Gal(b1-4)GlcNAc(b1-2)Man(a1-3)[Man(a1-6)]Man(b1-4)GlcNAc(b1-4)GlcNAc
How it was run: as §1

[33] = target: Neu5Ac(a2-6)Gal(b1-4)GlcNAc(b1-2)Man(a1-3)[Neu5Ac(a2-3)Gal(b1-4)GlcNAc(b1-2)Man(a1-6)]Man(b1-4)GlcNAc(b1-4)GlcNAc
How it was run: as §1

[34] = target: Neu5Ac(a2-6)Gal(b1-4)GlcNAc(b1-2)Man(a1-3)[Neu5Ac(a2-6)Gal(b1-4)GlcNAc(b1-2)Man(a1-6)]Man(b1-4)GlcNAc(b1-4)GlcNAc
How it was run: as §1

[35] = target: Neu5Ac(a2-6)Gal(b1-4)GlcNAc(b1-2)Man(a1-3)[Neu5Ac(a2-6)Gal(b1-4)GlcNAc(b1-2)Man(a1-6)]Man(b1-4)GlcNAc(b1-4)[Fuc(a1-6)]GlcNAc
How it was run: as §1

[36] = target: Neu5Ac(a2-6)Gal(b1-4)GlcNAc(b1-2)Man(a1-6)Man(b1-4)GlcNAc(b1-4)GlcNAc
How it was run: as §1

[37] = target: Neu5Ac(a2-6)Gal(b1-4)GlcNAc(b1-2)Man(a1-6)[Gal(b1-4)GlcNAc(b1-2)Man(a1-3)]Man(b1-4)GlcNAc(b1-4)GlcNAc
How it was run: as §1

[38] = target: Neu5Ac(a2-6)Gal(b1-4)GlcNAc(b1-2)Man(a1-6)[GlcNAc(b1-2)Man(a1-3)]Man(b1-4)GlcNAc(b1-4)GlcNAc
How it was run: as §1

[39] = target: Neu5Ac(a2-6)Gal(b1-4)GlcNAc(b1-2)Man(a1-6)[Man(a1-3)]Man(b1-4)GlcNAc(b1-4)GlcNAc
How it was run: as §1

[40] = target: Neu5Ac(a2-6)Gal(b1-4)GlcNAc(b1-2)[Neu5Ac(a2-6)Gal(b1-4)GlcNAc(b1-4)]Man(a1-3)[GlcNAc(b1-4)][Neu5Ac(a2-6)Gal(b1-4)GlcNAc(b1-2)[Neu5Ac(a2-6)Gal(b1-4)GlcNAc(b1-6)]Man(a1-6)]Man(b1-4)GlcNAc(b1-4)GlcNAc
How it was run: as §1

[41] = target: Neu5Ac(a2-6)Gal(b1-4)GlcNAc(b1-2)[Neu5Ac(a2-6)Gal(b1-4)GlcNAc(b1-4)]Man(a1-3)[GlcNAc(b1-4)][Neu5Ac(a2-6)Gal(b1-4)GlcNAc(b1-4)Man(a1-6)]Man(b1-4)GlcNAc(b1-4)GlcNAc
How it was run: as §1

[42] = target: Neu5Ac(a2-6)Gal(b1-4)GlcNAc(b1-2)[Neu5Ac(a2-6)Gal(b1-4)GlcNAc(b1-6)]Man(a1-6)[Neu5Ac(a2-6)Gal(b1-4)GlcNAc(b1-2)Man(a1-3)][GlcNAc(b1-4)]Man(b1-4)GlcNAc(b1-4)GlcNAc
How it was run: as §1

[43] = target: Neu5Ac(a2-6)Gal(b1-4)GlcNAc(b1-3)Gal(b1-3)GlcNAc
How it was run: as §1

[44] = target: Neu5Ac(a2-6)Gal(b1-4)GlcNAc(b1-3)Gal(b1-4)GlcNAc
How it was run: as §1

[45] = target: Neu5Ac(a2-6)Gal(b1-4)GlcNAc(b1-3)Gal(b1-4)GlcNAc(b1-2)Man(a1-3)[Neu5Ac(a2-6)Gal(b1-4)GlcNAc(b1-3)Gal(b1-4)GlcNAc(b1-2)Man(a1-6)]GalNAc
How it was run: as §1

B1: LlpA (Burkholderia cenocepacia) (protein)
chain: MGSSHHHHHHSSGLVPRGSHKILGSNETLSAGNVVYSDNGQYHLAMQTDGNLVVYGPTGAVWQSQTSGSGGNRAVMQGDGNLVIYRADNTAAWSSKTAHPGAFLAVQDDGNVVIYWPRPAWASNTSDPATQQSAESKYLASGSTMSAGQTVTVAQYMLVFQADGNLVLYKNGGNPIWSTGTQGKGATYAVMQSDGNFVIYAGSTALWSTKTNGANGAQLVLQSDGNLVIYAPTAAWSTKFGLVTAPTSTSTSNNGPGSGICVGVCPPHPLNGNPFSPVGVGTTGLGFPTPGYPGAAF
glycan array binding signal (z-score) [1]: -0.688
glycan array binding signal (z-score) [2]: -1.07
glycan array binding signal (z-score) [3]: -0.021
glycan array binding signal (z-score) [4]: -0.363
glycan array binding signal (z-score) [5]: 0.798
glycan array binding signal (z-score) [6]: -0.785
glycan array binding signal (z-score) [7]: -0.407
glycan array binding signal (z-score) [8]: -0.73
glycan array binding signal (z-score) [9]: -0.548
glycan array binding signal (z-score) [10]: -0.356
glycan array binding signal (z-score) [11]: 1.38
glycan array binding signal (z-score) [12]: 1.57
glycan array binding signal (z-score) [13]: -0.297
glycan array binding signal (z-score) [14]: 0.357
glycan array binding signal (z-score) [15]: -1.05
glycan array binding signal (z-score) [16]: -1.66
glycan array binding signal (z-score) [17]: 0.659
glycan array binding signal (z-score) [18]: -0.208
glycan array binding signal (z-score) [19]: 0.457
glycan array binding signal (z-score) [20]: -0.447
glycan array binding signal (z-score) [21]: 0.959
glycan array binding signal (z-score) [22]: -0.11
glycan array binding signal (z-score) [23]: -0.305
glycan array binding signal (z-score) [24]: -0.697
glycan array binding signal (z-score) [25]: -1.35
glycan array binding signal (z-score) [26]: -0.538
glycan array binding signal (z-score) [27]: -1.05
glycan array binding signal (z-score) [28]: -0.786
glycan array binding signal (z-score) [29]: 0.352
glycan array binding signal (z-score) [30]: 0.706
glycan array binding signal (z-score) [31]: -0.897
glycan array binding signal (z-score) [32]: 0.308
glycan array binding signal (z-score) [33]: 0
glycan array binding signal (z-score) [34]: 0.281
glycan array binding signal (z-score) [35]: 1.78
glycan array binding signal (z-score) [36]: 0.594
glycan array binding signal (z-score) [37]: -0.3
glycan array binding signal (z-score) [38]: -0.988
glycan array binding signal (z-score) [39]: 0.702
glycan array binding signal (z-score) [40]: -0.394
glycan array binding signal (z-score) [41]: 0.06
glycan array binding signal (z-score) [42]: -0.012
glycan array binding signal (z-score) [43]: -0.35
glycan array binding signal (z-score) [44]: 0.126
glycan array binding signal (z-score) [45]: -0.456
